PubChem BioAssay AID686938 | Drosophila RNAi Screening Center | 2013

Aim: 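Fly genes required for calcium entry once internal stores are emptied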 (primary screen)
Cells: Drosophila S2R+ cells
Reagent: long dsRNA against Drosophila genes, about 0.25 µg dsRNA per well, roughly 10,000 cells
Duration: 5 days of knock-down before the calcium assay
Challenge: thapsigargin (SERCA pump blocker) to empty calcium stores; entry signal taken 4 min after adding it
Read-out: 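Per-well fluo-4 fluorescence in two replicates, unnormalised, measured in resting cells and 4 min after store depletion by the SERCA blocker thapsigargin; ratio of the two present in few wells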
Scale: calcium entry signal: higher = stronger calcium signal after store depletion; resting calcium signal: higher = higher resting calcium signal
Units: calcium entry signal in fluorescence units; resting calcium signal in fluorescence units
Hit rule: 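Hit if the duplicate-averaged plate z-score for entry over resting signal is under −3; wells with weak total dye signal (Fmax z < −2) or more than 5 off-targets removed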
Calls: active = strongly reduced calcium entry; inactive = no strong reduction
The deposit covers about 23,000 reagents; shown is a random part of those with a known target gene and a result. In the full data, 75 (0.33%) got an active call. 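Raw plate signals without normalisation; calls rest on plate z-scores that were not deposited; ratio present for only 364 wells.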 Unmarked entries are inactive. Reagent sequences are not shown. Not stated in the record: the dose of the treatment.

After knock-down of CG8924 [DRSC20122], the record shows calcium entry signal, replicate 1 = 4.43e7; calcium entry signal, replicate 2 = 5.01e7; resting calcium signal, replicate 1 = 2.10e7; resting calcium signal, replicate 2 = 2.37e7.
Against CG8924 [DRSC23027], the entry reads calcium entry signal, replicate 1 = 3.54e7; calcium entry signal, replicate 2 = 3.58e7; resting calcium signal, replicate 1 = 1.63e7; resting calcium signal, replicate 2 = 1.53e7.
CG32079 [DRSC22636] showed calcium entry signal, replicate 1 = 4.61e7; calcium entry signal, replicate 2 = 4.30e7; resting calcium signal, replicate 1 = 2.81e7; resting calcium signal, replicate 2 = 1.93e7.
Depletion of cpb (capping protein beta) [DRSC00809] gave: calcium entry signal, replicate 1 = 4.17e7; resting calcium signal, replicate 1 = 2.26e7.
With knock-down of CG14369 [DRSC14831], the record shows calcium entry signal, replicate 1 = 2.75e7; calcium entry signal, replicate 2 = 4.17e7; resting calcium signal, replicate 1 = 1.45e7; resting calcium signal, replicate 2 = 6.63e7.
With knock-down of CG13698 [DRSC10047], the screen gave calcium entry signal, replicate 1 = 4.70e7; calcium entry signal, replicate 2 = 5.69e7; resting calcium signal, replicate 1 = 2.12e7; resting calcium signal, replicate 2 = 3.76e7.
Silencing of CG6927 [DRSC18407] came out at: calcium entry signal, replicate 1 = 2.99e7; calcium entry signal, replicate 2 = 2.26e7; resting calcium signal, replicate 1 = 1.31e7; resting calcium signal, replicate 2 = 1.10e7.
Against CG15824 [DRSC00473], the entry reads calcium entry signal, replicate 1 = 2.94e7; calcium entry signal, replicate 2 = 3.19e7; resting calcium signal, replicate 1 = 1.44e7; resting calcium signal, replicate 2 = 1.41e7.
Silencing of AnxB9 (Annexin B9) [DRSC14111] came out at: calcium entry signal, replicate 1 = 4.08e7; calcium entry signal, replicate 2 = 3.93e7; resting calcium signal, replicate 1 = 1.84e7; resting calcium signal, replicate 2 = 1.83e7.
CG7970 [DRSC08605] scored calcium entry signal, replicate 1 = 3.89e7; calcium entry signal, replicate 2 = 3.45e7; resting calcium signal, replicate 1 = 1.62e7; resting calcium signal, replicate 2 = 1.69e7.
Knock-down of Lkb1 (Lkb1 kinase) [DRSC16481] gave: calcium entry signal, replicate 1 = 2.91e7; calcium entry signal, replicate 2 = 3.42e7; resting calcium signal, replicate 1 = 1.30e7; resting calcium signal, replicate 2 = 1.43e7.
For superdeath (Suppressor of ER stress-induced death) [DRSC14868], the values are calcium entry signal, replicate 1 = 6.20e7; calcium entry signal, replicate 2 = 2.85e7; resting calcium signal, replicate 1 = 2.91e7; resting calcium signal, replicate 2 = 1.59e7.

Ordered by “calcium entry signal, replicate 1” (lowest first): some entries from above.
CG8924 [DRSC23027]: calcium entry signal, replicate 1 = 3.54e7; calcium entry signal, replicate 2 = 3.58e7; resting calcium signal, replicate 1 = 1.63e7; resting calcium signal, replicate 2 = 1.53e7
CG32079 [DRSC22636]: calcium entry signal, replicate 1 = 4.61e7; calcium entry signal, replicate 2 = 4.30e7; resting calcium signal, replicate 1 = 2.81e7; resting calcium signal, replicate 2 = 1.93e7
